The text below walks through data of PubChem BioAssay AID274 (DTP/NCI, 2004).

For the assay, the system named is BDF1 mice, Lewis lung carcinoma iv, survival T/C. Kind of assay: NCI In Vivo Anticancer Drug Screen. Data for tumor model Lewis Lung Carcinoma (intravenous) in B6D2F1 (BDF1) mice. Conditions: T/C endpoint: median survival time, higher T/C = longer survival. As to the method:
The antitumor activity of compounds was measured in mice bearing transplantable tumors. Survival or tumor size were measured and the results are expressed as the measurement made in the treated group (T) divided by the measurement made in the vehicle treated control group (C). The tumor model used in this assay is Lewis Lung Carcinoma (intravenous) in B6D2F1 (BDF1) mice

Where [1] appears, read: dose: 12.5 mg/kg/injection, schedule: Q01DX009 (ip), vehicle: saline.
The mark [2] stands for this setting: dose: 25.0 mg/kg/injection, schedule: Q01DX009 (ip), vehicle: saline.
Setting [3] is: dose: 25.0 mg/kg/injection, schedule: Q01DX009 (ip), vehicle: saline with Tween-80.
Setting [4] is: dose: 50.0 mg/kg/injection, schedule: Q01DX009 (ip), vehicle: saline with Tween-80.
Setting [5] is: dose: 25.0 mg/kg/injection, schedule: Q01DX009 (ip), vehicle: Klucel (hydroxypropylcellulose) (HPC).
[6] abbreviates: dose: 50.0 mg/kg/injection, schedule: Q01DX009 (ip), vehicle: Klucel (hydroxypropylcellulose) (HPC).
[7] abbreviates: dose: 100.0 mg/kg/injection, schedule: Q01DX009 (ip), vehicle: Klucel (hydroxypropylcellulose) (HPC).
Setting [8] is: dose: 12.5 mg/kg/injection, schedule: Q01DX009 (ip), vehicle: Klucel (hydroxypropylcellulose) (HPC).
Setting [9] is: dose: 100.0 mg/kg/injection, schedule: Q01DX009 (ip), vehicle: saline.
Setting [10] is: dose: 200.0 mg/kg/injection, schedule: Q01DX009 (ip), vehicle: saline.

The list does not hold the whole screen: it gathers tests that were run many times, whatever their T/C, doses with no T/C, and many T/C values between a quarter and a half above the control. Other doses and runs of a compound stand elsewhere. T/C is the treated group as % of the vehicle group. Some doses have a count of surviving animals in place of a T/C: the source files T/C as zero there, which appears to mark a toxic dose or a test without result, not a measured value. Some doses without a T/C left all or most animals alive at the check, yet need not have been tolerated: survival well below the control is almost never listed, so the zero probably covers shortened survival too. Counts of survivors are from the toxicity check (mostly the fifth day) where no day follows; animals may have died later. Schedules are NCI's codes, read here as Q, the interval in days (D) or hours (H), X, the number of doses. Marks such as (2×) count equal records among those shown. Some doses were run more than once; the results are listed from low to high. For survival time, this PubChem deposit counts one and a half times the control or more as active, and values a quarter to a half above the control carry no call in these data; other NCI protocols may use other cut-offs. Some T/C values are followed by the survivors on the day toxicity was checked, most often the fifth; where none is given, no animal had died by that day.

Turning to `ClCC[Se](Cl)(Cl)c1ccccc1`, the survivor count (dose: 6.25 mg/kg/injection, schedule: Q01DX009 (ip), vehicle: saline) is given as 10 of 10; the survivor count under setting [1] is 2 of 10; the survivor count under setting [2] was 3 of 10.

Take `CC(=O)O[C@@H]1[C@@H](O)C2=C3[C@]4(C)[C@@H]1C(C)(C)C(=O)C[C@@H]4[C@]3(O)[C@H](OC(C)=O)[C@@]1(C[C@@H]1C)C2=O`: the T/C under setting [3] is 141 % of control. Besides, the survivor count is on record as 10 of 10 under setting [4] and 6 of 10 (dose: 100.0 mg/kg/injection, schedule: Q01DX009 (ip), vehicle: saline with Tween-80).

For the compound `[O-][n+]1c(CN2CCCCC2)nc2cccc3c2c1-c1ccccc1-3`, the survivor count (dose: 400.0 mg/kg/injection, schedule: Q01DX009 (ip), vehicle: saline with Tween-80) was 3 of 10.

Regarding `CN(C)/N=N/c1nc[nH]c1C(N)=O`, the survivor count is listed as 10 of 10 under setting [5]; 10 of 10 under setting [6]; 9 of 10 under setting [7]; 0 of 10 (dose: 512.0 mg/kg/injection, schedule: Q01DX009 (ip), vehicle: Klucel (hydroxypropylcellulose) (HPC)). In addition, the T/C reads like this: (dose: 64.0 mg/kg/injection, schedule: Q01DX009 (ip), vehicle: Klucel (hydroxypropylcellulose) (HPC)) 133 % of control; under setting [7], 126 % of control.

On to `CCCCc1ccc2nc(NC(=O)OC)[nH]c2c1`, for which the survivor count (dose: 200.0 mg/kg/injection, schedule: Q01DX009 (ip), vehicle: saline with Tween-80) is listed as 10 of 10.

As for `CCc1nc(N)nc(N)c1-c1ccc(Cl)c([N+](=O)[O-])c1`, under setting [3], the T/C is 132 % of control. Also, the survivor count under setting [4] is on record as 10 of 10.

As for `COc1cc(NS(C)(=O)=O)ccc1Nc1c2ccccc2nc2ccccc12`, the T/C (dose: 10.0 mg/kg/injection, schedule: Q04DX003 (ip), vehicle: clinical formulation) was 140 % of control.

Consider `O=Cc1ccc(C=O)c(Cl)c1`, for which the survivor count (dose: 800.0 mg/kg/injection, schedule: Q01DX009 (ip), vehicle: Klucel (hydroxypropylcellulose) (HPC)) is on record as 7 of 10.

For `Clc1cc(Cl)nc(N2CC2)n1`, the T/C (dose: 1.25 mg/kg/injection, schedule: Q01DX009 (ip), vehicle: saline) was 133 % of control. The survivor count runs as follows: (dose: 2.5 mg/kg/injection, schedule: Q01DX009 (ip), vehicle: saline with Tween-80) 7 of 10; (dose: 2.5 mg/kg/injection, schedule: Q01DX009 (ip), vehicle: saline) 10 of 10; (dose: 5.0 mg/kg/injection, schedule: Q01DX009 (ip), vehicle: saline) 5 of 9; (dose: 10.0 mg/kg/injection, schedule: Q01DX009 (ip), vehicle: saline with Tween-80) 3 of 10.

As to `CC(=O)OCC(=O)[C@@]12OC(C)(C)O[C@@H]1C[C@H]1[C@@H]3CC(C=O)=C4C=C(OCCCl)CC[C@]4(C)[C@@]3(F)[C@@H](O)C[C@@]12C`, the survivor count (dose: 3.13 mg/kg/injection, schedule: Q01DX009 (ip), vehicle: Klucel (hydroxypropylcellulose) (HPC)) is recorded as 10 of 10; the survivor count (dose: 6.25 mg/kg/injection, schedule: Q01DX009 (ip), vehicle: Klucel (hydroxypropylcellulose) (HPC)) is given as 9 of 9; the survivor count under setting [8] is 8 of 10; the survivor count under setting [5] is 9 of 10, 10 of 10, 9 of 9; the survivor count under setting [6] is recorded as 10 of 10; the survivor count under setting [7] was 8 of 10 and 9 of 10.

With `CC(C)C(=O)OCC1OC(n2cnc3c(=S)nc(N)[nH]c32)C(OC(=O)C(C)C)C1OC(=O)C(C)C` (stereo not drawn), the survivor count is on record as 10 of 10 under setting [8] and 8 of 10 under setting [5].

In the case of `CCOC(=O)C(N)CSC(=O)NC` (stereo not drawn), for the setting “dose: 800.0 mg/kg/injection, schedule: Q01DX009 (ip), vehicle: saline”, the survivor count is given as 1 of 9.

Turning to `CCS(=O)(=O)OCCCCOS(=O)(=O)CC`, the T/C under setting [1] is 133 % of control. Besides, the survivor count reads like this: under setting [2], 7 of 10; (dose: 50.0 mg/kg/injection, schedule: Q01DX009 (ip), vehicle: saline) 10 of 10; under setting [9], 8 of 10; under setting [10], 2 of 10.

`CC(=O)OCC1OC(n2ccc(N)nc2=O)C(OC(C)=O)C1OC(C)=O` (stereo not drawn): under setting [9], the T/C was 144 % of control. The survivor count under setting [10] was 10 of 10.

Consider `COc1ccc2[nH]c3ccc4cc[n+](CCN5CCC(C6CCN(CC[n+]7ccc8ccc9[nH]c%10ccc(OC)cc%10c9c8c7)CC6)CC5)cc4c3c2c1`, for which the T/C under setting [6] is 143 % of control. The survivor count under setting [7] is 10 of 10 and the survivor count (dose: 200.0 mg/kg/injection, schedule: Q01DX009 (ip), vehicle: Klucel (hydroxypropylcellulose) (HPC)) is given as 10 of 10.

In the case of `CC1CN1CC(O)C(O)CN1CC1C` (stereo not drawn), the T/C (dose: 2.0 mg/kg/injection, schedule: Q01DX009 (ip), vehicle: saline) was 134 % of control. In addition, the survivor count was 10 of 10 (2×) (dose: 4.0 mg/kg/injection, schedule: Q01DX009 (ip), vehicle: saline) and 8 of 10 (dose: 8.0 mg/kg/injection, schedule: Q01DX009 (ip), vehicle: saline).

Consider `O=C1CN(CN2CCOCC2)C(=O)CN1CN1CCOCC1`, for which the survivor count (dose: 400.0 mg/kg/injection, schedule: Q01DX009 (ip), vehicle: saline) was 3 of 10.

On to `NC1(C(=O)O)CCCc2ccc(N(CCCl)CCCl)cc21` (stereo not drawn), for which, for the setting “dose: 40.0 mg/kg/injection, schedule: Q01DX009 (ip), vehicle: saline with Tween-80”, the survivor count is listed as 9 of 10.

For the compound `O=c1[nH]c(=O)n(C2CC(O)C(CO)O2)cc1F` (stereo not drawn), the T/C by setting is: (dose: 103.0 mg/kg/injection, schedule: Q04DX003 (ip), vehicle: saline, evaluated on day 60) 105 and 114 % of control; (dose: 103.0 mg/kg/injection, schedule: Q04DX003 (ip), vehicle: saline, evaluated on day 90) 102 and 106 % of control; (dose: 147.0 mg/kg/injection, schedule: Q04DX003 (ip), vehicle: saline, evaluated on day 60) 109 and 114 % of control; (dose: 147.0 mg/kg/injection, schedule: Q04DX003 (ip), vehicle: saline, evaluated on day 90) 122 and 140 % of control [7 of 8 alive]; (dose: 147.0 mg/kg/injection, schedule: Q04DX006 (ip), vehicle: saline) 141 % of control; (dose: 210.0 mg/kg/injection, schedule: Q04DX003 (ip), vehicle: saline, evaluated on day 60) 122 and 132 % of control. The T/C is 118 [7 of 8 alive] and 133 % of control (dose: 210.0 mg/kg/injection, schedule: Q04DX003 (ip), vehicle: saline, evaluated on day 90); 131 and 165 % of control (dose: 300.0 mg/kg/injection, schedule: Q04DX003 (ip), vehicle: saline, evaluated on day 60); 146 and 148 % of control (dose: 300.0 mg/kg/injection, schedule: Q04DX003 (ip), vehicle: saline, evaluated on day 90). Further, for the setting “dose: 429.0 mg/kg/injection, schedule: Q04DX003 (ip), vehicle: saline”, the survivor count is recorded as 8 of 8.

With `CC(=O)C(O)N1C(=O)C=CC1=O` (stereo not drawn), the survivor count (dose: 10.0 mg/kg/injection, schedule: Q01DX009 (ip), vehicle: saline) is 3 of 10 and 10 of 10.
